These are yes or no findings as the source states them, for the method shown. Some results given as binding are weak or reduced against the parent protein; the word gives no strength.
Tests used:
mRXRβ (mouse) [1] = biological target: T1, mRXRβ (mouse) (UniProt P28704); assay: co-operative binding to PPRE (gel retardation)
T1 sequence (looked up): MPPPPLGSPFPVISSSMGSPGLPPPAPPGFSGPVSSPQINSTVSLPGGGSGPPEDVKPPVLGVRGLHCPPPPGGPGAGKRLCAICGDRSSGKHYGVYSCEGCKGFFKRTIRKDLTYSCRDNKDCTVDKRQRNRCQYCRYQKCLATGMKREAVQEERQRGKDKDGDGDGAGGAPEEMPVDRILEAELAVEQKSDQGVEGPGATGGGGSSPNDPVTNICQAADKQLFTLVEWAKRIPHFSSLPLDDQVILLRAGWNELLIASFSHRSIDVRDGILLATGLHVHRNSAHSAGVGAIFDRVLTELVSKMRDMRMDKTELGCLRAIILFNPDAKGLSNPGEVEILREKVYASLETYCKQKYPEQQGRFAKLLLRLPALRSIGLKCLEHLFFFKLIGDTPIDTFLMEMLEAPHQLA

The chains behind the UniProt entries cited, without tags or fusion partners. Where a name states a change or a piece, a line headed by the entry shows the natural chain unless it says otherwise.
UniProt P37231: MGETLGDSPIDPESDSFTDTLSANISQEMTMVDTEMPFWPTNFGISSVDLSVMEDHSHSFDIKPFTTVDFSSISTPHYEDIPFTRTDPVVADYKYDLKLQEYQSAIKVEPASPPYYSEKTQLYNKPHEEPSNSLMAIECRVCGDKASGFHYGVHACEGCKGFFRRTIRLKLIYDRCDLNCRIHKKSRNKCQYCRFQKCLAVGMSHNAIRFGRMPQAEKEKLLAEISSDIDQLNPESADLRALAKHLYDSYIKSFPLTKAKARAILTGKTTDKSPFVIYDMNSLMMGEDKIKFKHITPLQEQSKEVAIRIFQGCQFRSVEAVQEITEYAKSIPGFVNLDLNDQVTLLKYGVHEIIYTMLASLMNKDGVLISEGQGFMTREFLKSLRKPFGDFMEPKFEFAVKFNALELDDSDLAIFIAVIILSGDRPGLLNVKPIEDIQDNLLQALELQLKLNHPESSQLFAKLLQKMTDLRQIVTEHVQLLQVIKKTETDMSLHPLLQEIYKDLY

mRXRγ (mouse) [2] = biological target: T2, mRXRγ (mouse) (UniProt P28705); assay: co-operative binding to PPRE (gel retardation)
T2 sequence (looked up): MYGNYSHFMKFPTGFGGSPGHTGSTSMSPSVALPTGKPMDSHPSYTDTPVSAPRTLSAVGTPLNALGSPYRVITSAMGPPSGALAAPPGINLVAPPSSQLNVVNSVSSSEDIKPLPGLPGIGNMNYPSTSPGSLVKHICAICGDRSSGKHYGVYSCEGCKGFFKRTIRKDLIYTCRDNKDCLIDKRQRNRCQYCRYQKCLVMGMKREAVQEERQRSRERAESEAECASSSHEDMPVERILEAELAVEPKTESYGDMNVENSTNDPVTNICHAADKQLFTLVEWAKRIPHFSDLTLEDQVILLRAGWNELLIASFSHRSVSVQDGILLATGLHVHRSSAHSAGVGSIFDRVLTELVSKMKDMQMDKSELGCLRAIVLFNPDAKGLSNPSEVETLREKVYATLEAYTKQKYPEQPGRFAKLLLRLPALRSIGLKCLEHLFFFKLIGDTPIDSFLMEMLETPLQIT

mRXRβ (mouse) [3] = biological target: T1, mRXRβ (mouse); assay: gel retardation assay with PPRE oligonucleotides
mRXRγ (mouse) [4] = biological target: T2, mRXRγ (mouse); assay: gel retardation assay with PPRE oligonucleotides

- binding (mRXRβ (mouse) [1]): binds
- binding (mRXRγ (mouse) [2]): binds
- binding (mRXRβ (mouse) [3]): binds
- binding (mRXRγ (mouse) [4]): binds
Substance: human peroxisome proliferator activated receptor γ (hPPARγ) (from UniProt P37231 29-505)
